Binding data for one substance are collected here from publication PMC12574227.

By UniProt entry, the sequences of proteins in these tests, tags left out. Residues count along the entry.
UniProt Q08722, residues 19-323: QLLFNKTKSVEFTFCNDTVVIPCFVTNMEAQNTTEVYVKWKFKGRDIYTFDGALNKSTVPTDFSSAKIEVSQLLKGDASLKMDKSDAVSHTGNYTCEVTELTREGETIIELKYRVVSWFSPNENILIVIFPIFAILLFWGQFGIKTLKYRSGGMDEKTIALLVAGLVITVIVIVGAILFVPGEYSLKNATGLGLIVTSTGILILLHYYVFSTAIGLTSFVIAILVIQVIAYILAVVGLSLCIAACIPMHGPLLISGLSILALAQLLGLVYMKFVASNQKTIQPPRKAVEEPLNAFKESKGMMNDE
UniProt Q9UIJ5: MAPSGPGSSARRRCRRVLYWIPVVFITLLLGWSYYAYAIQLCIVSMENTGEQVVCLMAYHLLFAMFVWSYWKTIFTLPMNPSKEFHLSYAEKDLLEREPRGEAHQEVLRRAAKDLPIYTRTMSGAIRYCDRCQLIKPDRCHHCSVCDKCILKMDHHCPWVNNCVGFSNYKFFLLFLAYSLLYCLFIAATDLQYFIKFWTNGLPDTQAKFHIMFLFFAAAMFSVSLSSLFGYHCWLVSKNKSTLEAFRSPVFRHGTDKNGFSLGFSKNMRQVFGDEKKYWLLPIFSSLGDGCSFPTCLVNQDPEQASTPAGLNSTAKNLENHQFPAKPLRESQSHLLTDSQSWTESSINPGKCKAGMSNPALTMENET

Results are given in words; binding and its absence hold for the method and conditions named. In cells and extracts the contact can be indirect. Some entries that bind do so weakly or less than the wild type.

In the experiment the target is CD47 (human (endogenous in PC-3 and DU145)) (UniProt Q08722). The experiment is described as follows: co-IP; immunoprecipitation in lysates of PC-3 and DU145 cells with ZDHHC2 and CD47 antibodies; Western blot.

As to “ZDHHC2 (from UniProt Q9UIJ5 1-367) (enzyme)”, the binding result was “binds”.
